This is an account of results in US12146010B2, “Amine co-initiator mixture” (Arkema UK Limited, priority 2019, dated 2024).

This series is described as follows: Migration of amine co-initiators from cured films into simulant solvents (HPLC). Particulars: 60° C. for 10 days, average of three runs, 24 μm cured film, 5% w/w amine. The source says:
The following example illustrates the potential to use a mixture of amine co-initiators as defined by this invention as a low-migration co-initiator system.
Formulations containing 90% w/w Ebecryl 40 (Allnex), 4% w/w SpeedCure BP (Lambson Limited), 1% w/w SpeedCure 2-ITX (Lambson Limited) and 5% w/w of either SpeedCure EDB, SpeedCure 7040 (Lambson Limited) or the amine co-initiator mixture AM1 were cured onto paper strips in 24 μm films under a Hg lamp until fully cured (as determined by the ‘thumb-twist’ test, see Example 3). The cured paper strips were each cut to a size of approx. 100 cm 2 and the mass of cured resin adhered to each piece of paper was recorded. The cured paper strips were each submerged into 15 mL of solvent in sealed pressure vessels and were held at 60° C. in an oven for 10 days; the solvents used were either acetonitrile, 50% v/v ethanol in water, or 3% w/v acetic acid in water. All of the vessels were subsequently allowed to cool to 20-25° C. and the paper strips were removed from the simulant solvents. Samples of each solvent were filtered and injected onto HPLC, and all components dissolved in the solvents were eluted using appropriate HPLC methods. Comparison of peak areas to previously prepared calibration curves allowed for the masses of the amine co-initiators present in the injected volume of solvent to be calculated, and therefore also the total amount of amine dissolved in the 15 mL of simulant solvent for each sample. Since SpeedCure 7040 and mixture AM1 contain multiple components, the peak areas of all components in those mixtures were added together. The total amount of amine which had migrated from the cured films into the simulant solvents is expressed in Tables 4-6 and FIGS. 1-3 as a percentage of the total amount amine present on each cured strip (taken to be 5% of the total amount of cured resin on the strip). […] SpeedCure 2-ITX and SpeedCure BP were also seen to migrate from the cured films into the surrounding solvents in every case (along with other minor impurities), but these were not quantified.

Regarding `CCOC(=O)c1ccc(N(C)C)cc1` [SpeedCure EDB, ethyl 4-(dimethylamino)benzoate, reference compound], the “Weight % of Amine Migrated” value by setting is: (into 3% w/v acetic acid in de-ionised water) 3.5 ^ Weight %; (into 50% v/v ethanol in de-ionised water) 42.6 Weight %; (into acetonitrile) 47.5 Weight %.
